The source of these data is doi:10.1101/2021.07.09.451853.

Protein sequences, listed by entry. Tags and fused reporters are not part of them. Lines headed by an entry give the natural chain unless they say otherwise; changes in a name come on top.
UniProt Q9SGW5: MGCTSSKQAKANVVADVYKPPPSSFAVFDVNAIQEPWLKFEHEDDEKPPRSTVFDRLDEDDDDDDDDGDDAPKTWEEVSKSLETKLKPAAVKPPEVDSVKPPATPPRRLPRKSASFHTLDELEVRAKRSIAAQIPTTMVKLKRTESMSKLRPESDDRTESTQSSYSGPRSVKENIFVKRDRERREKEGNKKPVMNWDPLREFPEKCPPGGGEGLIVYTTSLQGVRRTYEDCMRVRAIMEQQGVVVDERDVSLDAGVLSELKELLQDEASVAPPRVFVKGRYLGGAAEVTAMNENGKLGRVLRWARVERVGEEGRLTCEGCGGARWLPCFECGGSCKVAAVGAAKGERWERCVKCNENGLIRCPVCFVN

Results are given in words; binding and its absence hold for the method and conditions named. For some of these results: A result given as binding can be weak or reduced; the word gives no strength. Sequences can lack the tags named with a protein. For some of these results: Binding seen in cells or lysates may run through a third protein.

For assay [1], the target named is T1, 14-3-3 CHI:YFP (35S:CHI:YFP) (A. thaliana) (UniProt P42643).
T1 sequence: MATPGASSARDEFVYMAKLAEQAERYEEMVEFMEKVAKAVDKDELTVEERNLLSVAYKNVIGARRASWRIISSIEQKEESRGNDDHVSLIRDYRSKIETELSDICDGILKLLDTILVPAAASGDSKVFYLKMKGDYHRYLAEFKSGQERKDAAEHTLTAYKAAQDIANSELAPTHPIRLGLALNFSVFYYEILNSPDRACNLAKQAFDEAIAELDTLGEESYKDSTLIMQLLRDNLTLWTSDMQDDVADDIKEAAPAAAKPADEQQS
As to the kind of experiment: co-IP.

For assay [2], the target named is T2, 14-3-3 KAPPA:YFP (35S:KAPPA:YFP) (A. thaliana) (UniProt P48348).
T2 sequence: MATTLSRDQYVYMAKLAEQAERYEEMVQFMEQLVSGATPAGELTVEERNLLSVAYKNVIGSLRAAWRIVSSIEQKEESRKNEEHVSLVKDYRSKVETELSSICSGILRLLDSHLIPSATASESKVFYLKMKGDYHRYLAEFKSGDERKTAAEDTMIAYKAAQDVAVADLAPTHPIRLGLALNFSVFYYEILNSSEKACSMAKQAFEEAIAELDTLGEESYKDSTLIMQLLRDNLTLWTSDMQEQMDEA
As to the kind of experiment: co-IP.

For assay [3], the target named is T3, 14-3-3 OMEGA:YFP (35S:OMEGA:YFP) (A. thaliana) (UniProt Q01525).
T3 sequence: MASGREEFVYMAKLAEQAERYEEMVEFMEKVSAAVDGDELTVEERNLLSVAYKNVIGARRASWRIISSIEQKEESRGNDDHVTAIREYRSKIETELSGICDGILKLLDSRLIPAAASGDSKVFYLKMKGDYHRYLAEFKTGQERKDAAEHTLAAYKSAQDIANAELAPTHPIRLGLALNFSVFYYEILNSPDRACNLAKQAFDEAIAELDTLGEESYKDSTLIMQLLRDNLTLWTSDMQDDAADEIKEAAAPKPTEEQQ
As to the kind of experiment: co-IP.

In assay [4] the target is THRUMIN1 (yeast two-hybrid fusion) (A. thaliana) (UniProt Q9SGW5). As to the kind of experiment: two-hybrid.

Turning to “THRUMIN1:HA (35S:THRUMIN1:HA) (A. thaliana)”, the values for the binding entry in assay [1], in assay [2] and in assay [3] were “no binding”, “binds” and “binds”, respectively.

B1: 14-3-3 KAPPA (yeast two-hybrid fusion) (protein, UniProt P48348 1-248)
chain: T2 sequence
For B1, the binding result in assay [4] was “binds”.
